Reference: paper PMC11736008
These are yes or no findings as the source states them, for the method shown. In cells and extracts the contact can be indirect. Some results given as binding are weak or reduced against the parent protein; the word gives no strength. Values belong to the binder of their own block, whether it stands above or below them.

How the values were obtained:
IFIT5 = molecular target: T1, IFIT5 (UniProt Q13325); experiment: co-IP; anti-Myc antibodies on lysates of H1975 cells overexpressing HA-tagged OAS (WT or Del-NT) and Myc-tagged IFIT (WT or Del-TPR12); protein A/G beads overnight at 4 °C; immunoblot (OAS3/IFIT3 and OAS2/IFIT5 in Fig. S8C, details not shown)
T1 sequence: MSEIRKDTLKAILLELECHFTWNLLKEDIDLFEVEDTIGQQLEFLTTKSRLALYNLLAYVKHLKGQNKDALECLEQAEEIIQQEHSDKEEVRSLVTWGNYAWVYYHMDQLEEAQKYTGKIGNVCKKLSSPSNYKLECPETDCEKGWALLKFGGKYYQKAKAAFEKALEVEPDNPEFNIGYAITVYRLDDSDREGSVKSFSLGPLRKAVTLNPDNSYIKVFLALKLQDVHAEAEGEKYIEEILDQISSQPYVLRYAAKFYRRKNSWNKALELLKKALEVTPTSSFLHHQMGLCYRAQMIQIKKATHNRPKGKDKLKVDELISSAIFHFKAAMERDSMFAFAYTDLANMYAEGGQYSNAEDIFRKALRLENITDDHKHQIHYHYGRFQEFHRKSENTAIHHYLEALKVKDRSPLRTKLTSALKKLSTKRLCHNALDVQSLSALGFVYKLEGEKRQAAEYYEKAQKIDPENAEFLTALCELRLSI

[1] = molecular target: T2, IFIT3 (in the intrapulmonary H1975 / AAV5-infected mouse model) (human (endogenous in H1975 cells implanted in mouse lung)) (UniProt O14879); experiment: co-IP; anti-OAS2 or anti-IFIT3 antibodies on samples of the intrapulmonary injection LUAD-bearing (H1975) mouse model infected with NC or IFIT3-inhibitor AAV; IgG control in parallel; immunoblot
T2 sequence: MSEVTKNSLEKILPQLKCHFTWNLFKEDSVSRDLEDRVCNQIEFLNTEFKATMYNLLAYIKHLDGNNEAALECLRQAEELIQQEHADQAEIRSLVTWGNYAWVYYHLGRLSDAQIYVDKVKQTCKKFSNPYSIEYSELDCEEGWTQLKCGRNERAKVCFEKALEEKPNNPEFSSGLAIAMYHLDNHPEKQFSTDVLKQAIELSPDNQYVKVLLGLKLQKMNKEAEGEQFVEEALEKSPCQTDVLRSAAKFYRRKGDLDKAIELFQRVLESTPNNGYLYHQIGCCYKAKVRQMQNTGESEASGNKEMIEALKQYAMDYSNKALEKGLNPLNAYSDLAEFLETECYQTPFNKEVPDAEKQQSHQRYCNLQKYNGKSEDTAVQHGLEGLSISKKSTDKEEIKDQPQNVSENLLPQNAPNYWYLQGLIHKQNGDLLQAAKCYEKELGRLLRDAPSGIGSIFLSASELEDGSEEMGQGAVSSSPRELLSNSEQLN

[2] = molecular target: T3, IFIT2 (human (endogenous in human LUAD cell line)) (UniProt P09913); experiment: co-IP; endogenous proteins in cell lysate (H1975 for OAS1/IFIT1); Western/IP lysis buffer, 3 ug of anti-OAS or anti-IFIT antibody and protein A/G beads overnight at 4 °C; IgG control in parallel; immunoblot
T3 sequence: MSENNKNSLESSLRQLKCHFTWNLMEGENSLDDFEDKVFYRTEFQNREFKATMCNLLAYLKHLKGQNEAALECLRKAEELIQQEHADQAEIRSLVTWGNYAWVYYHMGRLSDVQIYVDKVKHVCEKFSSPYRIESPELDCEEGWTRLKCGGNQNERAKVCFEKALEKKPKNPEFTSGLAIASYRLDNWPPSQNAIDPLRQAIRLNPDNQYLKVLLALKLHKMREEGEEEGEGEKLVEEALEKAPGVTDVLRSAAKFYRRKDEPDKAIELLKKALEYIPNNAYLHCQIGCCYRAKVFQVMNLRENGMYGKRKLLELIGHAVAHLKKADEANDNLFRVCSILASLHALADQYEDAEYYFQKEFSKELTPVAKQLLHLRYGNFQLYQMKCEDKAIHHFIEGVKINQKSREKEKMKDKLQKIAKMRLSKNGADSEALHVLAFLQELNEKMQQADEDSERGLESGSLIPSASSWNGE

[3] = molecular target: T4, IFIT3 (human (endogenous in human LUAD cell line)) (UniProt O14879); experiment: as above
T4 sequence: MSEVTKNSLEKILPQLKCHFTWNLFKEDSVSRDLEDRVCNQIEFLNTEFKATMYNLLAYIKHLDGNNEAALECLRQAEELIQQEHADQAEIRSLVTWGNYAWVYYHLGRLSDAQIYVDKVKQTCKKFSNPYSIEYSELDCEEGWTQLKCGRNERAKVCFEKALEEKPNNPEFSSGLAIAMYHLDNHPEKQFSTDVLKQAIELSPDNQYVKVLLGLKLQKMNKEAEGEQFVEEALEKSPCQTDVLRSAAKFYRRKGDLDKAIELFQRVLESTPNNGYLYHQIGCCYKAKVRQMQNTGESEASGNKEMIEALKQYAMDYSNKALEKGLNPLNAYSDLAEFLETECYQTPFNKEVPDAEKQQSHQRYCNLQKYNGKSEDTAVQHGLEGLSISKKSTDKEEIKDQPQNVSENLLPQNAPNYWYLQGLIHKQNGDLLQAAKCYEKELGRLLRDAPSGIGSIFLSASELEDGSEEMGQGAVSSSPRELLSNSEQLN

[4] = molecular target: T5, IFIT1 (human (endogenous in H1975)) (UniProt P09914); experiment: as above
T5 sequence: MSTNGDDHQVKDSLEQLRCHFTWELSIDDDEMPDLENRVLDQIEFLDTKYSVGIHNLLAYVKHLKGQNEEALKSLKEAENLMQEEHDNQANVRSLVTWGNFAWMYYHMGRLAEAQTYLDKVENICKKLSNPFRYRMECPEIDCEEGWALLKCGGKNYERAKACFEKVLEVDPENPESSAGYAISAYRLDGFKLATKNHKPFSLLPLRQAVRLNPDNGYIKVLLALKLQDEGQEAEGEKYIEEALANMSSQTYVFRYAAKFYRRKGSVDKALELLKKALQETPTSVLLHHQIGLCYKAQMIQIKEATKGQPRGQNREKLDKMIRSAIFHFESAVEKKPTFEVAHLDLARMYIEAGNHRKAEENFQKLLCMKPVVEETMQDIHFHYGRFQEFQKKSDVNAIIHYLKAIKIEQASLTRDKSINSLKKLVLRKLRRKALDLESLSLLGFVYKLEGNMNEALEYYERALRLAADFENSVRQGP

B2: OAS2 (in the intrapulmonary H1975 / AAV5-infected mouse model) (protein, UniProt P29728 1-719)
chain: MGNGESQLSSVPAQKLGWFIQEYLKPYEECQTLIDEMVNTICDVLQEPEQFPLVQGVAIGGSYGRKTVLRGNSDGTLVLFFSDLKQFQDQKRSQRDILDKTGDKLKFCLFTKWLKNNFEIQKSLDGFTIQVFTKNQRISFEVLAAFNALSLNDNPSPWIYRELKRSLDKTNASPGEFAVCFTELQQKFFDNRPGKLKDLILLIKHWHQQCQKKIKDLPSLSPYALELLTVYAWEQGCRKDNFDIAEGVRTVLELIKCQEKLCIYWMVNYNFEDETIRNILLHQLQSARPVILDPVDPTNNVSGDKICWQWLKKEAQTWLTSPNLDNELPAPSWNVLPAPLFTTPGHLLDKFIKEFLQPNKCFLEQIDSAVNIIRTFLKENCFRQSTAKIQIVRGGSTAKGTALKTGSDADLVVFHNSLKSYTSQKNERHKIVKEIHEQLKAFWREKEEELEVSFEPPKWKAPRVLSFSLKSKVLNESVSFDVLPAFNALGQLSSGSTPSPEVYAGLIDLYKSSDLPGGEFSTCFTVLQRNFIRSRPTKLKDLIRLVKHWYKECERKLKPKGSLPPKYALELLTIYAWEQGSGVPDFDTAEGFRTVLELVTQYQQLCIFWKVNYNFEDETVRKFLLSQLQKTRPVILDPAEPTGDVGGGDRWCWHLLAKEAKEWLSSPCFKDGTGNPIPPWKVPTMQTPGSCGARIHPIVNEMFSSRSHRILNNNSKRNF
binding [1]: binds

B3: OAS2 (protein, UniProt P29728 1-719)
chain: MGNGESQLSSVPAQKLGWFIQEYLKPYEECQTLIDEMVNTICDVLQEPEQFPLVQGVAIGGSYGRKTVLRGNSDGTLVLFFSDLKQFQDQKRSQRDILDKTGDKLKFCLFTKWLKNNFEIQKSLDGFTIQVFTKNQRISFEVLAAFNALSLNDNPSPWIYRELKRSLDKTNASPGEFAVCFTELQQKFFDNRPGKLKDLILLIKHWHQQCQKKIKDLPSLSPYALELLTVYAWEQGCRKDNFDIAEGVRTVLELIKCQEKLCIYWMVNYNFEDETIRNILLHQLQSARPVILDPVDPTNNVSGDKICWQWLKKEAQTWLTSPNLDNELPAPSWNVLPAPLFTTPGHLLDKFIKEFLQPNKCFLEQIDSAVNIIRTFLKENCFRQSTAKIQIVRGGSTAKGTALKTGSDADLVVFHNSLKSYTSQKNERHKIVKEIHEQLKAFWREKEEELEVSFEPPKWKAPRVLSFSLKSKVLNESVSFDVLPAFNALGQLSSGSTPSPEVYAGLIDLYKSSDLPGGEFSTCFTVLQRNFIRSRPTKLKDLIRLVKHWYKECERKLKPKGSLPPKYALELLTIYAWEQGSGVPDFDTAEGFRTVLELVTQYQQLCIFWKVNYNFEDETVRKFLLSQLQKTRPVILDPAEPTGDVGGGDRWCWHLLAKEAKEWLSSPCFKDGTGNPIPPWKVPTMQTPGSCGARIHPIVNEMFSSRSHRILNNNSKRNF
binding [2]: binds

B5: OAS1 (protein, UniProt P00973 1-400)
chain: MMDLRNTPAKSLDKFIEDYLLPDTCFRMQINHAIDIICGFLKERCFRGSSYPVCVSKVVKGGSSGKGTTLRGRSDADLVVFLSPLTTFQDQLNRRGEFIQEIRRQLEACQRERAFSVKFEVQAPRWGNPRALSFVLSSLQLGEGVEFDVLPAFDALGQLTGGYKPNPQIYVKLIEECTDLQKEGEFSTCFTELQRDFLKQRPTKLKSLIRLVKHWYQNCKKKLGKLPPQYALELLTVYAWERGSMKTHFNTAQGFRTVLELVINYQQLCIYWTKYYDFKNPIIEKYLRRQLTKPRPVILDPADPTGNLGGGDPKGWRQLAQEAEAWLNYPCFKNWDGSPVSSWILLAESNSADDETDDPRRYQKYGYIGTHEYPHFSHRPSTLQAASTPQAEEDWTCTIL
binding [4]: binds

Other lines, results leading:

binding (IFIT5): binds
B1: OAS2^WT (protein, UniProt P29728 1-719)
chain: MGNGESQLSSVPAQKLGWFIQEYLKPYEECQTLIDEMVNTICDVLQEPEQFPLVQGVAIGGSYGRKTVLRGNSDGTLVLFFSDLKQFQDQKRSQRDILDKTGDKLKFCLFTKWLKNNFEIQKSLDGFTIQVFTKNQRISFEVLAAFNALSLNDNPSPWIYRELKRSLDKTNASPGEFAVCFTELQQKFFDNRPGKLKDLILLIKHWHQQCQKKIKDLPSLSPYALELLTVYAWEQGCRKDNFDIAEGVRTVLELIKCQEKLCIYWMVNYNFEDETIRNILLHQLQSARPVILDPVDPTNNVSGDKICWQWLKKEAQTWLTSPNLDNELPAPSWNVLPAPLFTTPGHLLDKFIKEFLQPNKCFLEQIDSAVNIIRTFLKENCFRQSTAKIQIVRGGSTAKGTALKTGSDADLVVFHNSLKSYTSQKNERHKIVKEIHEQLKAFWREKEEELEVSFEPPKWKAPRVLSFSLKSKVLNESVSFDVLPAFNALGQLSSGSTPSPEVYAGLIDLYKSSDLPGGEFSTCFTVLQRNFIRSRPTKLKDLIRLVKHWYKECERKLKPKGSLPPKYALELLTIYAWEQGSGVPDFDTAEGFRTVLELVTQYQQLCIFWKVNYNFEDETVRKFLLSQLQKTRPVILDPAEPTGDVGGGDRWCWHLLAKEAKEWLSSPCFKDGTGNPIPPWKVPTMQTPGSCGARIHPIVNEMFSSRSHRILNNNSKRNF

binding [3]: binds
B4: OAS3 (protein, UniProt Q9Y6K5 1-1087)
chain: MDLYSTPAAALDRFVARRLQPRKEFVEKARRALGALAAALRERGGRLGAAAPRVLKTVKGGSSGRGTALKGGCDSELVIFLDCFKSYVDQRARRAEILSEMRASLESWWQNPVPGLRLTFPEQSVPGALQFRLTSVDLEDWMDVSLVPAFNVLGQAGSGVKPKPQVYSTLLNSGCQGGEHAACFTELRRNFVNIRPAKLKNLILLVKHWYHQVCLQGLWKETLPPVYALELLTIFAWEQGCKKDAFSLAEGLRTVLGLIQQHQHLCVFWTVNYGFEDPAVGQFLQRQLKRPRPVILDPADPTWDLGNGAAWHWDLLAQEAASCYDHPCFLRGMGDPVQSWKGPGLPRAGCSGLGHPIQLDPNQKTPENSKSLNAVYPRAGSKPPSCPAPGPTGAASIVPSVPGMALDLSQIPTKELDRFIQDHLKPSPQFQEQVKKAIDIILRCLHENCVHKASRVSKGGSFGRGTDLRDGCDVELIIFLNCFTDYKDQGPRRAEILDEMRAQLESWWQDQVPSLSLQFPEQNVPEALQFQLVSTALKSWTDVSLLPAFDAVGQLSSGTKPNPQVYSRLLTSGCQEGEHKACFAELRRNFMNIRPVKLKNLILLVKHWYRQVAAQNKGKGPAPASLPPAYALELLTIFAWEQGCRQDCFNMAQGFRTVLGLVQQHQQLCVYWTVNYSTEDPAMRMHLLGQLRKPRPLVLDPADPTWNVGHGSWELLAQEAAALGMQACFLSRDGTSVQPWDVMPALLYQTPAGDLDKFISEFLQPNRQFLAQVNKAVDTICSFLKENCFRNSPIKVIKVVKGGSSAKGTALRGRSDADLVVFLSCFSQFTEQGNKRAEIISEIRAQLEACQQERQFEVKFEVSKWENPRVLSFSLTSQTMLDQSVDFDVLPAFDALGQLVSGSRPSSQVYVDLIHSYSNAGEYSTCFTELQRDFIISRPTKLKSLIRLVKHWYQQCTKISKGRGSLPPQHGLELLTVYAWEQGGKDSQFNMAEGFRTVLELVTQYRQLCIYWTINYNAKDKTVGDFLKQQLQKPRPIILDPADPTGNLGHNARWDLLAKEAAACTSALCCMGRNGIPIQPWPVKAAV
